Laboratory results published in the supplement of paper PMC10849652.
The other results are listed elsewhere or left out. Residues, ends and D or L forms follow the SMILES beside them. *: point of attachment. Cbz = O=C(OCc1ccccc1)*

By UniProt entry, the sequences of proteins in these tests, tags left out. Where a name states a change or a piece, a line headed by the entry shows the natural chain unless it says otherwise.
UniProt P11086: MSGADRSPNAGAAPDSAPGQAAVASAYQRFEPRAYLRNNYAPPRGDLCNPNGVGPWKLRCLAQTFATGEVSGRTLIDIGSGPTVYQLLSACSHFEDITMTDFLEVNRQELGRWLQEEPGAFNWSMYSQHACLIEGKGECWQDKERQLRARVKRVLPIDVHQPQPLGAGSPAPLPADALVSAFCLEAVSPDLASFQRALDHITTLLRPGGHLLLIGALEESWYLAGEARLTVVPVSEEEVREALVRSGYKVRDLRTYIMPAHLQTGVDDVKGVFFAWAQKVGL
UniProt Q96HA1, whole entry, looked up: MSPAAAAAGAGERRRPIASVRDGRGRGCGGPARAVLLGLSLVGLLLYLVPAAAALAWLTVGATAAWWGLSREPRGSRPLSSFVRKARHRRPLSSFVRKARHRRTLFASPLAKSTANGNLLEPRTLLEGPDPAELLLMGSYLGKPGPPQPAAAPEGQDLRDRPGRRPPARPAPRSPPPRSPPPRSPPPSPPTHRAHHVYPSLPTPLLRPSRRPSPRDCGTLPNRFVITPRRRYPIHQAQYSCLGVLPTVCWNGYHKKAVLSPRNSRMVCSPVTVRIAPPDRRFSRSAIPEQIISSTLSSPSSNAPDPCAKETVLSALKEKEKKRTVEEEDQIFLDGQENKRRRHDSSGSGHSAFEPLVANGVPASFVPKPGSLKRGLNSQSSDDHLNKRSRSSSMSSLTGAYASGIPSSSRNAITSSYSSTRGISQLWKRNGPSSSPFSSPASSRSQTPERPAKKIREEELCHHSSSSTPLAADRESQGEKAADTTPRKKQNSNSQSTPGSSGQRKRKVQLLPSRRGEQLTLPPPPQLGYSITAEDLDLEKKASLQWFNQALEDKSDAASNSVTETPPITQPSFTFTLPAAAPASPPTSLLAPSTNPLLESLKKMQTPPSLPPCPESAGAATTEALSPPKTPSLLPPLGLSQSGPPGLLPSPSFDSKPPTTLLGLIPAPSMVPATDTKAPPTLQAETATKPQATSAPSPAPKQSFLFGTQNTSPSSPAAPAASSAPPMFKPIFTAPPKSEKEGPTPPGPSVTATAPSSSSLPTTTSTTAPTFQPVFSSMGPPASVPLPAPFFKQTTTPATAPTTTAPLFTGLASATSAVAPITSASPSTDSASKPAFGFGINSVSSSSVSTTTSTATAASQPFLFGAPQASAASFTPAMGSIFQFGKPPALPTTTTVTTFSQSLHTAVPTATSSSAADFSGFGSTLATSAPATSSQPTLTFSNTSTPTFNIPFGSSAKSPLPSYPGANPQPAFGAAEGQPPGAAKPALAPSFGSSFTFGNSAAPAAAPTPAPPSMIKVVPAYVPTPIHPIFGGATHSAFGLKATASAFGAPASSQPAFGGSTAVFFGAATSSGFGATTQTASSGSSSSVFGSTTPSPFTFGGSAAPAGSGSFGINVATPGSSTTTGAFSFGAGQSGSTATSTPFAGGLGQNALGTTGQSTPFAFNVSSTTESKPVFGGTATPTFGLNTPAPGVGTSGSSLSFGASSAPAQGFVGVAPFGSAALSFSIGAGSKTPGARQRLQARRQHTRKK
UniProt Q9H5K3: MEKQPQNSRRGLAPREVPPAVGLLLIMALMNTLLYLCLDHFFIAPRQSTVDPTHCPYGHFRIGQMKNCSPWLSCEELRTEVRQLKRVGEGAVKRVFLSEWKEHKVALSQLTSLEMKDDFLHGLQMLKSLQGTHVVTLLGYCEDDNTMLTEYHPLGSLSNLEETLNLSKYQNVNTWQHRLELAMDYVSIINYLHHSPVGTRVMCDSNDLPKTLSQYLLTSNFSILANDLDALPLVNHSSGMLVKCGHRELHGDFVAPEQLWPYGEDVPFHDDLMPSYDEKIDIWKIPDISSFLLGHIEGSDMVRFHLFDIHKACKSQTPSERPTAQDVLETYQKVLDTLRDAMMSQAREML
UniProt A8CG34, whole entry, looked up: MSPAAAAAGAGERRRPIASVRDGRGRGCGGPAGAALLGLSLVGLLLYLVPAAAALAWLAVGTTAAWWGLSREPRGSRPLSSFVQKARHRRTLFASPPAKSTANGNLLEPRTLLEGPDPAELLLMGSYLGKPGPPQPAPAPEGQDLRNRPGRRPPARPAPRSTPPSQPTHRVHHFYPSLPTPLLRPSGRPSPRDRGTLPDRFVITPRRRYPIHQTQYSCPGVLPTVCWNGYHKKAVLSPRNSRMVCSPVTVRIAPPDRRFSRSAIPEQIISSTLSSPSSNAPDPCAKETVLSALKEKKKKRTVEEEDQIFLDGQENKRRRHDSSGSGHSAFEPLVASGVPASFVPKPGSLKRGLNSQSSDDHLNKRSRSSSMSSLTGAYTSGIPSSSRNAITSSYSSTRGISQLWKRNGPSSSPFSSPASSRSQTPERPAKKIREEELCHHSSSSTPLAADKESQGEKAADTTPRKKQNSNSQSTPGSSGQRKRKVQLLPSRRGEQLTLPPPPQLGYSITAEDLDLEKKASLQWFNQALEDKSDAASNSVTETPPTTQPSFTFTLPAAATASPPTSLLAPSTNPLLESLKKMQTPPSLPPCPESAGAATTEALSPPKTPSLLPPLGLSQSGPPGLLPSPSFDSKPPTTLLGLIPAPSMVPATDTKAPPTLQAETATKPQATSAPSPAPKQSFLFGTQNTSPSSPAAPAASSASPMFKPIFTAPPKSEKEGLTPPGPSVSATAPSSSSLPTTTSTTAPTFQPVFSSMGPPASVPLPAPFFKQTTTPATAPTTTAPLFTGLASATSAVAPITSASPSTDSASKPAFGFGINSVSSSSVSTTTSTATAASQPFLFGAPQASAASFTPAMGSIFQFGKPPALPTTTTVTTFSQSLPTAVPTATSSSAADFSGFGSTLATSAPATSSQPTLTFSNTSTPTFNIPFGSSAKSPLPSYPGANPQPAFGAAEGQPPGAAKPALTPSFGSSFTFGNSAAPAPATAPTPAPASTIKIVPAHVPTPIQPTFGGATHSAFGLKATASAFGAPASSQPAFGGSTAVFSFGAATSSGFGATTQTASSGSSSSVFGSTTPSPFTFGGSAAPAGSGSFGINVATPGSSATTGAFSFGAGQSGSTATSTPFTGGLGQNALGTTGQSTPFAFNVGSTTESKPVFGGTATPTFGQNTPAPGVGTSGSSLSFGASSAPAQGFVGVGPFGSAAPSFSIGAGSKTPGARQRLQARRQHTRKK
UniProt Q04941: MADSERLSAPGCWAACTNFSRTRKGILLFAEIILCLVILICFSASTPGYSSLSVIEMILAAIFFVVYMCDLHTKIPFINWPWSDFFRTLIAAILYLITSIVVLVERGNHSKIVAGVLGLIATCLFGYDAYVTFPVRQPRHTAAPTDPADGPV
UniProt Q9Y535: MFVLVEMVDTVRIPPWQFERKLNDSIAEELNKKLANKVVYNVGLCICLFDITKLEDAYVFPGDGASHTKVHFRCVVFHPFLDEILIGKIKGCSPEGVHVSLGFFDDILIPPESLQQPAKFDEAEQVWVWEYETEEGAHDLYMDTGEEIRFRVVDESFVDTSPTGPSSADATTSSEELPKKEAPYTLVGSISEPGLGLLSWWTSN
UniProt Q8NAT1: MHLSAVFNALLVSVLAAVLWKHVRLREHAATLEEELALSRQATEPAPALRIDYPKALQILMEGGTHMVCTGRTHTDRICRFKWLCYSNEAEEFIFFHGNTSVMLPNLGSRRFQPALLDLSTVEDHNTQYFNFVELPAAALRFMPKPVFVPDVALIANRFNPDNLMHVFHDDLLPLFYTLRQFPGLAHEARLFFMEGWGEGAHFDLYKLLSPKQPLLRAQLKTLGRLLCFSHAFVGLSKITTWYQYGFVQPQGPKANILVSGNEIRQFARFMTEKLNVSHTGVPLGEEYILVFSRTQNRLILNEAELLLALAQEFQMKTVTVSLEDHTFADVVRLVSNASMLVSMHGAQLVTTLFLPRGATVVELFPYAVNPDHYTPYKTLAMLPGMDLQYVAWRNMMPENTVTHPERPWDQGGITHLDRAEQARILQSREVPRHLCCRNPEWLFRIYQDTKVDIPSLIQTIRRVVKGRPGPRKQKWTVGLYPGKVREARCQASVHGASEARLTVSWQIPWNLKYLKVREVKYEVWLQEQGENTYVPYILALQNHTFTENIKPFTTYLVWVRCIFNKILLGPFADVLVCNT
UniProt Q9H9Y6, whole entry, looked up: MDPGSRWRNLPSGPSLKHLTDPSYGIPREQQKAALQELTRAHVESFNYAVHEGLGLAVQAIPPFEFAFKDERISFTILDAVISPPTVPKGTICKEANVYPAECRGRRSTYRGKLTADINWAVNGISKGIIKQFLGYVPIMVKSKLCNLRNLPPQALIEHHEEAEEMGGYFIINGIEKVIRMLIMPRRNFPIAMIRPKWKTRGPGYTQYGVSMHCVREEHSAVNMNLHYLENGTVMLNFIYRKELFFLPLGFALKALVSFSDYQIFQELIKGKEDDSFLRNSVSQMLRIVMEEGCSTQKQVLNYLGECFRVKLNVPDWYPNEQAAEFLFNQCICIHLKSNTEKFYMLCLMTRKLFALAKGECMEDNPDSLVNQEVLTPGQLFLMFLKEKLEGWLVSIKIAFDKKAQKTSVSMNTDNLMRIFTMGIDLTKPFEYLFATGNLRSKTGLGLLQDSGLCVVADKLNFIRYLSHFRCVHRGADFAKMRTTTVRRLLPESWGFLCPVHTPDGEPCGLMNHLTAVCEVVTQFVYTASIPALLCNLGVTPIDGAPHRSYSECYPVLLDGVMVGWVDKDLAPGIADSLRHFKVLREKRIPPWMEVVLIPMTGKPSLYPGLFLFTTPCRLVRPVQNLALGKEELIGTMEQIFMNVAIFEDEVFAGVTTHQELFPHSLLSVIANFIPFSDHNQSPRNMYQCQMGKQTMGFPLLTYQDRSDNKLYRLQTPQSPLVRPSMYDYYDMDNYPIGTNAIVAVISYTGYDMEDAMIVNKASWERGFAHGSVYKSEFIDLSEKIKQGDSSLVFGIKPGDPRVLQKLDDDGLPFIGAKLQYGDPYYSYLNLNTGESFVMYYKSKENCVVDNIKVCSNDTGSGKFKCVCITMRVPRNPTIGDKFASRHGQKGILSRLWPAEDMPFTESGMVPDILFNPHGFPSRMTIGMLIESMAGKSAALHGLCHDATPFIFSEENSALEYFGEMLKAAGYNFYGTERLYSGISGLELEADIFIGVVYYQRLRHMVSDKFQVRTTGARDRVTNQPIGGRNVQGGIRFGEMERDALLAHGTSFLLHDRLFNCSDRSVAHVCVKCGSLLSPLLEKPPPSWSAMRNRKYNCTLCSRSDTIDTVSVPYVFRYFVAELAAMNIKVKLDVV
UniProt P54278: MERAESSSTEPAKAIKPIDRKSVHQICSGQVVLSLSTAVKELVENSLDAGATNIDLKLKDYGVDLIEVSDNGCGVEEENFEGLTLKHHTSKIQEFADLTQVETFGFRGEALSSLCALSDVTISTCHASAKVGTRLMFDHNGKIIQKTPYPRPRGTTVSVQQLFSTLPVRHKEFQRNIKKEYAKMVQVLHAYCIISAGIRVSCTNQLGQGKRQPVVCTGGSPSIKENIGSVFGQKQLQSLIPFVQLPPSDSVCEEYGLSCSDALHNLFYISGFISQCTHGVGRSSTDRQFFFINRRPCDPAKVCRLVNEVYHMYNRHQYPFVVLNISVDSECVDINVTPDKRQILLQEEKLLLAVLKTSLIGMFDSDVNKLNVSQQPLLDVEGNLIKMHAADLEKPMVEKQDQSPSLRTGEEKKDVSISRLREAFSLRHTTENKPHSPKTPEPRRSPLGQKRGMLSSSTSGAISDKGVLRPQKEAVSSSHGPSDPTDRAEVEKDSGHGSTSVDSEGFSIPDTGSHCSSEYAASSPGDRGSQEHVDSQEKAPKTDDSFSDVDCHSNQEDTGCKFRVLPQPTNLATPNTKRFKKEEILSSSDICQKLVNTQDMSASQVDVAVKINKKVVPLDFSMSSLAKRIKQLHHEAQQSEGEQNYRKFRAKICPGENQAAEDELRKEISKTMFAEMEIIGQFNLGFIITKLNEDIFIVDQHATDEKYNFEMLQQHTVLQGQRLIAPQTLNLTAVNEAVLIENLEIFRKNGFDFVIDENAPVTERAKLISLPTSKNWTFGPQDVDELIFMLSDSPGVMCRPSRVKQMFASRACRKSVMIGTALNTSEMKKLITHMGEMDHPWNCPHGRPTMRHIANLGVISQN

How the values were obtained:
Experiment in all cases: log2 fold change, soluble protein after heating vs DMSO (PISA); higher = thermal stabilisation; K562 cells, 10 uM, 30 min; active = over 0.2 and 3.5 SD of the protein, either way, in both replicates (recomputed)
erlotinib = compound: C#Cc1cccc(Nc2ncnc3cc(OCCOC)c(OCCOC)cc23)c1 [erlotinib]
Outline: (§1)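 K562 cells at 2×10^6 cells/mL were exposed to 10 μM compound for 30 min, then aliquots were heated for 3 min across 48°C-58°C, pooled, and extracted in PBS containing 0.5% NP-40 at 4°C. The supernatant after 21,000xg for 90 min was taken as soluble protein and measured by TMTpro 16plex LC-MS/MS with channel sums equalised. Thermal stability is reported relative to control samples, with values from duplicates. Fold changes are given on a log2 scale.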

[1] = compound: C/C(=N\NC(=O)C1=CC(=CC=C1)S(=O)(=O)N2CCOCC2)/C3=C(C=CC(=C3)Cl)O
Outline: as §1

[2] = compound: C1=CC(=CC=C1C2=NC3=C(N2)C=C(C=C3)C(=O)N)OC4=CC=C(C=C4)Cl
Outline: as §1

[3] = compound: C1=CC2=C(C=CC(=C2)/C=C\3/C(=O)NC(=NCC4=CC=CS4)S3)N=C1
Outline: as §1

[4] = compound: C1=CC=C2C(=C1)C3=NNC4=CC=CC(=C43)C2=O
Outline: as §1

[5] = compound: C1CCN(C1)C(=O)NC2=CC=CC(=C2)NC3=NC=C(C(=N3)NCCC4=CN=CN4)Br
Outline: as §1

[6] = compound: C1CN(CCC1(CC2=CC=C(C=C2)Cl)N)C3=NC=NC4=C3C=CN4
Outline: as §1

[7] = compound: CC(=O)c1cnc2ccc(-c3cc(Cl)c(O)c(Cl)c3)nc2c1N[C@H]1CC[C@H](CN(C)C)CC1
Outline: as §1

[8] = compound: CC(C)C1=C2N=C(C=C(N2N=C1)NCC3=CC=CC=C3)NCCCCCCN
Outline: as §1

[9] = compound: CC1=C(C2=C(C=C1)C(=O)C3=CC=CC=C3N2CCCN)C
Outline: as §1

[10] = compound: C1=CC(=C(C=C1Cl)C2=NC3=NC=CN=C3C(=N2)NC4=CC=NC=C4)F
Outline: as §1

[11] = compound: C1=CC2=NC=CN=C2C=C1/C=C/3\C(=O)NC(=O)S3
Outline: as §1

[12] = compound: C1=CC=C(C=C1)C2=NC(=C(N2)C3=CC=NC=C3)C4=CC(=C(C=C4)Cl)O
Outline: as §1

IRAK-1-4 Inhibitor I = compound: C1COCCN1CCN2C3=CC=CC=C3N=C2NC(=O)C4=CC(=CC=C4)[N+](=O)[O-] [IRAK-1-4 Inhibitor I]
Outline: as §1

ibrutinib = compound: C=CC(=O)N1CCC[C@@H](n2nc(-c3ccc(Oc4ccccc4)cc3)c3c(N)ncnc32)C1 [ibrutinib]
Outline: as §1

ralimetinib = compound: CC(C)(C)Cn1c(N)nc2ccc(-c3[nH]c(C(C)(C)C)nc3-c3ccc(F)cc3)nc21 [ralimetinib]
Outline: as §1

[13] = compound: CC(C)(O)CC(=O)NCCn1ccc2ncnc(Nc3ccc(Oc4cccc(C(F)(F)F)c4)c(Cl)c3)c21
Outline: as §1

[14] = compound: CC(C)C[C@@H](C=O)NC(=O)[C@H](CC(C)C)NC(=O)[C@H](CC(C)C)NC(=O)OCc1ccccc1
Outline: as §1

pinometostat = compound: CC(C)N(C[C@H]1O[C@@H](n2cnc3c(N)ncnc32)[C@H](O)[C@@H]1O)[C@H]1C[C@@H](CCc2nc3cc(C(C)(C)C)ccc3[nH]2)C1 [pinometostat]
Outline: as §1

[15] = compound: CC1=C(C(CC(=O)N1)C2=CC=C(C=C2)C(F)(F)F)C(=O)NC3=C(C=C4C(=C3)C=NN4)F
Outline: as §1

Target	log2 fold change (erlotinib)	log2 fold change [1]	log2 fold change [2]	log2 fold change [3]	log2 fold change [4]	log2 fold change [5]	log2 fold change [6]	log2 fold change [7]	log2 fold change [8]	log2 fold change [9]	log2 fold change [10]	log2 fold change [11]	log2 fold change [12]	log2 fold change (IRAK-1-4 Inhibitor I)	log2 fold change (ibrutinib)	log2 fold change (ralimetinib)	log2 fold change [13]	log2 fold change [14]	log2 fold change (pinometostat)	log2 fold change [15]
PNMT (UniProt P11086)	inactive: 0.236	inactive: 0.043	inactive: 0.042	inactive: 0.079	inactive: 0.081	inactive: 0.015	inactive: -0.007	inactive: -0.091	inactive: -0.091	inactive: 0.125	–	–	–	–	–	–	–	–	–	–
POM121 (UniProt Q96HA1)	inactive: -0.013	inactive: -0.075	inactive: 0.033	inactive: 0.118	inactive: -0.185	inactive: -0.087	inactive: -0.106	inactive: -0.164	inactive: -0.241	inactive: -0.057	inactive: -0.127	inactive: -0.008	inactive: -0.137	inactive: -0.022	inactive: 0.005	inactive: 0.083	inactive: 0.016	inactive: 0.178	inactive: 0.065	–
POMK (UniProt Q9H5K3)	inactive: -0.091	inactive: -0.007	inactive: 0.005	inactive: -0.01	inactive: -0.019	inactive: 0.006	inactive: 0.005	inactive: -0.042	inactive: -0.23	inactive: 0.042	inactive: 0.019	inactive: 0.071	inactive: 0.005	inactive: 0.046	inactive: -0.036	inactive: 0.032	inactive: -0.024	inactive: 0.027	inactive: 0.094	–
POM121C (UniProt A8CG34)	inactive: 0.062	inactive: -0.179	inactive: -0.015	inactive: 0.152	inactive: -0.277	–	–	inactive: -0.263	inactive: -0.198	–	–	inactive: -0.08	inactive: -0.006	inactive: -0.072	inactive: 0.123	inactive: 0.042	–	inactive: 0.223	inactive: 0.075	inactive: -0.353
PLP2 (UniProt Q04941)	inactive: 0.206	inactive: -0.101	inactive: -0.31	inactive: -0.255	inactive: -0.057	–	–	inactive: -0.171	inactive: 0.174	–	inactive: 0.103	inactive: -0.234	–	inactive: 0.073	inactive: -0.25	–	inactive: 0.078	–	inactive: -0.233	inactive: -0.12
POLR3H (UniProt Q9Y535)	inactive: 0.029	inactive: 0.157	inactive: 0.06	inactive: 0.043	inactive: -0.04	–	–	inactive: -0.081	inactive: 0.051	–	inactive: 0.209	inactive: 0.054	inactive: -0.078	inactive: -0.002	inactive: -0.066	inactive: 0.142	inactive: 0.131	inactive: -0.061	inactive: 0.024	inactive: -0.058
POMGNT2 (UniProt Q8NAT1)	inactive: -0.006	inactive: 0.096	inactive: -0.112	inactive: -0.078	inactive: 0.03	–	–	inactive: -0.208	inactive: 0.169	–	–	inactive: -0.067	–	inactive: 0.043	inactive: -0.385	–	–	–	inactive: 0.025	–
POLR2L (UniProt P62875)	inactive: -0.049	inactive: -0.012	inactive: -0.084	inactive: 0.046	inactive: 0.095	inactive: -0.099	inactive: -0.111	inactive: 0.009	inactive: 0.051	inactive: 0.27	inactive: 0.201	–	inactive: -0.158	–	–	inactive: 0.012	inactive: -0.003	inactive: 0.138	–	inactive: -0.007
POLR1B isoform 3 (UniProt Q9H9Y6)	inactive: -0.113	–	inactive: 0.174	–	–	inactive: 0.022	inactive: -0.089	–	inactive: -0.125	inactive: -0.115	inactive: -0.031	–	inactive: 0.066	inactive: -0.01	–	inactive: 0.038	inactive: -0.024	inactive: 0.099	inactive: 0.1	inactive: 0.045
POLR2D (UniProt O15514)	inactive: -0.153	inactive: -0.048	inactive: 0.204	inactive: 0.06	inactive: -0.011	inactive: 0.058	inactive: 0.064	active: 0.346	active: 0.374	inactive: 0.26	inactive: 0.138	inactive: 0.087	inactive: -0.049	inactive: 0.042	inactive: 0.082	inactive: -0.012	inactive: -0.006	inactive: -0.009	inactive: -0.026	–
PMS2 (UniProt P54278)	inactive: -0.094	inactive: -0.244	inactive: 0.361	inactive: 0.321	inactive: 0.185	–	–	inactive: 0.209	inactive: -0.356	–	inactive: -0.101	–	inactive: -0.081	inactive: 0.018	–	inactive: 0.067	inactive: -0.228	inactive: -0.052	inactive: -0.366	–

Quoted at random: two records from the list, in no set order.
Target	log2 fold change (erlotinib)	log2 fold change [1]	log2 fold change [2]	log2 fold change [3]	log2 fold change [4]	log2 fold change [5]	log2 fold change [6]	log2 fold change [7]	log2 fold change [8]	log2 fold change [9]	log2 fold change [10]	log2 fold change [11]	log2 fold change [12]	log2 fold change (IRAK-1-4 Inhibitor I)	log2 fold change (ibrutinib)	log2 fold change (ralimetinib)	log2 fold change [13]	log2 fold change [14]	log2 fold change (pinometostat)	log2 fold change [15]
POLR2L (UniProt P62875)	inactive: -0.049	inactive: -0.012	inactive: -0.084	inactive: 0.046	inactive: 0.095	inactive: -0.099	inactive: -0.111	inactive: 0.009	inactive: 0.051	inactive: 0.27	inactive: 0.201	–	inactive: -0.158	–	–	inactive: 0.012	inactive: -0.003	inactive: 0.138	–	inactive: -0.007
PNMT (UniProt P11086)	inactive: 0.236	inactive: 0.043	inactive: 0.042	inactive: 0.079	inactive: 0.081	inactive: 0.015	inactive: -0.007	inactive: -0.091	inactive: -0.091	inactive: 0.125	–	–	–	–	–	–	–	–	–	–
